From paper PMC3267021, “The Molecular Basis for the Endocytosis of Small R-SNAREs by the Clathrin Adaptor CALM” (Cell, 2011)
These are yes or no findings as the source states them, for the method shown. Tags and fused reporters may be left off the sequences shown.

T1: GSTVAMP8 L44PL51P (mouse) (UniProt O70404)
T1 sequence: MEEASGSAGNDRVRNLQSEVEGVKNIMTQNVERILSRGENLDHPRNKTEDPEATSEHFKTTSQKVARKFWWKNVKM

T2: GSTVAMP8 L16PV23P (mouse) (UniProt O70404)
T2 sequence: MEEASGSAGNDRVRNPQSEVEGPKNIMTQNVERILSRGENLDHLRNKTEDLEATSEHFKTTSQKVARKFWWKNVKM

T3: GST-VAMP8 (VAMP8 residues 1-76, full cytoplasmic portion) (mouse) (UniProt O70404)
T3 sequence: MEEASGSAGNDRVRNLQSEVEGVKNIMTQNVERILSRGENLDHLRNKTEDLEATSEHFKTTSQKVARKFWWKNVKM


Key:
[1] = target: T1, GSTVAMP8 L44PL51P (mouse); experiment: pull-down; SNARE complex formation: GST-VAMP8 incubated with a three fold molar excess of SNAP23 and syntaxin3 at 4°C for 48 hr in 20 mM HEPES pH 7.4, 500 mM NaCl, 4 mM DTT, 0.5% NP-40; purified on glutathione-sepharose, then S200 gel filtration; both purified
[2] = target: T2, GSTVAMP8 L16PV23P (mouse); experiment: as above
[3] = target: T3, GST-VAMP8 (VAMP8 residues 1-76, full cytoplasmic portion) (mouse); experiment: ITC; VPiTC; 2 mM His6MycCALM_(ANTH) (WT or mutant) or GST cleaved Epsin_(ENTH) titrated in 37 injections of 4-8 μL into 0.15 mM GST-SNARE in the cell; 100 mM HEPES pH 7.4, 150 mM NaCl, 4 mM DTT; legends give a representative run with SEM of the fit, the text the average of all runs; both purified
[4] = target: T3, GST-VAMP8 (VAMP8 residues 1-76, full cytoplasmic portion) (mouse); experiment: pull-down; GST-tagged bait (SNARE or preformed, purified 1:1:1 SNARE complex, 2 nmoles) on glutathione beads, His6Myc-tagged prey; 20 mM HEPES pH 7.4, 150 mM NaCl, 4 mM DTT, 4 mM β-mercaptoethanol, 0.1% NP-40, 0.05% BSA; 4°C overnight; Coomassie gel and anti-myc western blot; both purified

binding [1]	binding [2]	binding [4]	Binder	binding [3]
no binding	no binding	–	syntaxin3 (residues 195-253), GST cleaved (domain or fragment, human, UniProt Q13277 195-253, looked up, syntaxin3, human, residues 195-253; Construct pGEX 4T1syntaxin3_((195-253)) (human); also called syntaxin3_((195-253)); Synatxin3(195–253); source: E. coli BL21(DE3) pLysS, purified (glutathione sepharose, thrombin cleavage of GST); not shown: GST, N-terminal, cleaved) EGRHKDIVRLESSIKELHDMFMDIAMLVENQGEMLDNIELNVMHTVDHVEKARDETKKA	–
no binding	no binding	–	SNAP23, GST cleaved (protein, UniProt O00161 1-211) MDNLSSEEIQQRAHQITDESLESTRRILGLAIESQDAGIKTITMLDEQKEQLNRIEEGLDQINKDMRETEKTLTELNKCCGLCVCPCNRTKNFESGKAYKTTWGDGGENSPCNVVSKQPGPVTNGQLQQPTTGAASGGYIKRITNDAREDEMEENLTQVGSILGNLKDMALNIGNEIDAQNPQIKRITDKADTNRDRIDIANARAKKLIDS	–
–	–	no binding	CALM_(ANTH(1-264)), GST cleaved (domain or fragment, rat, UniProt O55012 1-264, looked up, source: E. coli BL21(DE3) pLysS, purified (glutathione sepharose, thrombin cleavage of GST, S200 gel filtration); not shown: GST, N-terminal, cleaved) MSGQSLTDRITAAQHSVTGSAVSKTVCKATTHEIMGPKKKHLDYLIQCTNEMNVNIPQLADSLFERTTNSSWVVVFKSLITTHHLMVYGNERFIQYLASRNTLFNLSNFLDKSGLQGYDMSTFIRRYSRYLNEKAVSYRQVAFDFTKVKRGADGVMRTMNTEKLLKTVPIIQNQMDALLDFNVNSNELTNGVINAAFMLLFKDAIRLFAAYNEGIINLLEKYFDMKKNQCKEGLDIYKKFLTRMTRISEFLKVAEQVGIDRGDI	no binding (tested: 2 mM titrated into 0.15 mM GST-SNARE)
–	–	no binding	His6MycCALM_(ANTH) L219S (domain or fragment, UniProt O55012 1-289) MSGQSLTDRITAAQHSVTGSAVSKTVCKATTHEIMGPKKKHLDYLIQCTNEMNVNIPQLADSLFERTTNSSWVVVFKSLITTHHLMVYGNERFIQYLASRNTLFNLSNFLDKSGLQGYDMSTFIRRYSRYLNEKAVSYRQVAFDFTKVKRGADGVMRTMNTEKLLKTVPIIQNQMDALLDFNVNSNELTNGVINAAFMLLFKDAIRLFAAYNEGIINLSEKYFDMKKNQCKEGLDIYKKFLTRMTRISEFLKVAEQVGIDRGDIPDLSQAPSSLLDALEQHLASLEGKK	no binding (tested: 2 mM titrated into 0.15 mM GST-SNARE)
–	–	no binding	His6MycCALM_(ANTH) M244K (domain or fragment, UniProt O55012 1-289) MSGQSLTDRITAAQHSVTGSAVSKTVCKATTHEIMGPKKKHLDYLIQCTNEMNVNIPQLADSLFERTTNSSWVVVFKSLITTHHLMVYGNERFIQYLASRNTLFNLSNFLDKSGLQGYDMSTFIRRYSRYLNEKAVSYRQVAFDFTKVKRGADGVMRTMNTEKLLKTVPIIQNQMDALLDFNVNSNELTNGVINAAFMLLFKDAIRLFAAYNEGIINLLEKYFDMKKNQCKEGLDIYKKFLTRKTRISEFLKVAEQVGIDRGDIPDLSQAPSSLLDALEQHLASLEGKK	no binding (tested: 2 mM titrated into 0.15 mM GST-SNARE)
–	–	no binding	His6MycCALM_(ANTH) F240A (domain or fragment, UniProt O55012 1-289) MSGQSLTDRITAAQHSVTGSAVSKTVCKATTHEIMGPKKKHLDYLIQCTNEMNVNIPQLADSLFERTTNSSWVVVFKSLITTHHLMVYGNERFIQYLASRNTLFNLSNFLDKSGLQGYDMSTFIRRYSRYLNEKAVSYRQVAFDFTKVKRGADGVMRTMNTEKLLKTVPIIQNQMDALLDFNVNSNELTNGVINAAFMLLFKDAIRLFAAYNEGIINLLEKYFDMKKNQCKEGLDIYKKALTRMTRISEFLKVAEQVGIDRGDIPDLSQAPSSLLDALEQHLASLEGKK	–
–	–	no binding	His6MycCALM_(ANTH) L251S (domain or fragment, UniProt O55012 1-289) MSGQSLTDRITAAQHSVTGSAVSKTVCKATTHEIMGPKKKHLDYLIQCTNEMNVNIPQLADSLFERTTNSSWVVVFKSLITTHHLMVYGNERFIQYLASRNTLFNLSNFLDKSGLQGYDMSTFIRRYSRYLNEKAVSYRQVAFDFTKVKRGADGVMRTMNTEKLLKTVPIIQNQMDALLDFNVNSNELTNGVINAAFMLLFKDAIRLFAAYNEGIINLLEKYFDMKKNQCKEGLDIYKKFLTRMTRISEFSKVAEQVGIDRGDIPDLSQAPSSLLDALEQHLASLEGKK	–
–	–	no binding	His6MycCALM_(ANTH) I247D (domain or fragment, UniProt O55012 1-289) MSGQSLTDRITAAQHSVTGSAVSKTVCKATTHEIMGPKKKHLDYLIQCTNEMNVNIPQLADSLFERTTNSSWVVVFKSLITTHHLMVYGNERFIQYLASRNTLFNLSNFLDKSGLQGYDMSTFIRRYSRYLNEKAVSYRQVAFDFTKVKRGADGVMRTMNTEKLLKTVPIIQNQMDALLDFNVNSNELTNGVINAAFMLLFKDAIRLFAAYNEGIINLLEKYFDMKKNQCKEGLDIYKKFLTRMTRDSEFLKVAEQVGIDRGDIPDLSQAPSSLLDALEQHLASLEGKK	–
